{"source": "PubChem BioAssay AID1259308, NCATS – 2017", "aim": "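Knock-downs that increase output of a recombinant reporter protein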 (primary screen)", "system": "human HEK293 embryonic kidney cells stably expressing firefly luciferase (HEK-CMV-Luc2-Hygro)", "knock-down reagent": "single siRNA against human genes, 0.8 pmol siRNA per well", "duration": "72 h", "read-out": "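Luciferase light (ONE-Glo) measured on one replicate plate set and viability (CellTiter-Glo) on the other, scaled to a negative control siRNA, with robust z-scores and luciferase per cell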", "reading the numbers": "total luciferase, z-score: higher = more reporter protein produced", "rule for the call": "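Active when the median/MAD z-score for overall luciferase is greater than 3; a gene was taken forward for validation with new siRNAs if at least two of its three siRNAs passed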", "calls": "active = raised luciferase; inactive = no rise", "note": "This is an unselected part of about 59,000 reagents. Of all reagents, about 1,510 (2.6%) were called active. 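Calls use total luciferase alone and ignore viability, so some active siRNAs may act by altering cell number.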 A number with no mark means an inactive call. The numbers tell different reagents against one gene apart. Further read-outs or replicates are left out here. No sequences are given here."}
{"gene": "H2AC20 (H2A clustered histone 20)", "reagent": 1, "total luciferase, z-score": 0.708}
{"gene": "H2AC20 (H2A clustered histone 20)", "reagent": 2, "total luciferase, z-score": -1.14}
{"gene": "H2AC20 (H2A clustered histone 20)", "reagent": 3, "total luciferase, z-score": 1.49}
{"gene": "ST3GAL6 (ST3 beta-galactoside alpha-2,3-sialyltransferase 6)", "reagent": 1, "total luciferase, z-score": 0.079}
{"gene": "ST3GAL6 (ST3 beta-galactoside alpha-2,3-sialyltransferase 6)", "reagent": 2, "total luciferase, z-score": -0.262}
{"gene": "ST3GAL6 (ST3 beta-galactoside alpha-2,3-sialyltransferase 6)", "reagent": 3, "total luciferase, z-score": 0.0341}
{"gene": "RHOD (ras homolog family member D)", "reagent": 1, "total luciferase, z-score": 1.45}
{"gene": "RHOD (ras homolog family member D)", "reagent": 2, "total luciferase, z-score": -1.71}
{"gene": "RHOD (ras homolog family member D)", "reagent": 3, "total luciferase, z-score": 0.676}
{"gene": "CCSAP (centriole, cilia and spindle associated protein)", "reagent": 1, "total luciferase, z-score": 1.06}
{"gene": "CCSAP (centriole, cilia and spindle associated protein)", "reagent": 2, "total luciferase, z-score": -0.87}
{"gene": "CCSAP (centriole, cilia and spindle associated protein)", "reagent": 3, "total luciferase, z-score": 1.51}
{"gene": "PPY (pancreatic polypeptide)", "reagent": 1, "total luciferase, z-score": 0.961}
{"gene": "PPY (pancreatic polypeptide)", "reagent": 2, "total luciferase, z-score": -0.511}
{"gene": "PPY (pancreatic polypeptide)", "reagent": 3, "total luciferase, z-score": -1.31}
{"gene": "ZNF43 (zinc finger protein 43)", "reagent": 1, "total luciferase, z-score": -0.111}
{"gene": "ZNF43 (zinc finger protein 43)", "reagent": 2, "total luciferase, z-score": -0.0661}
{"gene": "ZNF43 (zinc finger protein 43)", "reagent": 3, "total luciferase, z-score": -0.45}

Entries listed so far whose gene name starts with R or r (3):
{"gene": "RHOD (ras homolog family member D)", "reagent": 1, "total luciferase, z-score": 1.45}
{"gene": "RHOD (ras homolog family member D)", "reagent": 2, "total luciferase, z-score": -1.71}
{"gene": "RHOD (ras homolog family member D)", "reagent": 3, "total luciferase, z-score": 0.676}

The list goes on:
{"gene": "THY1 (Thy-1 cell surface antigen)", "reagent": 1, "total luciferase, z-score": 0.514}
{"gene": "THY1 (Thy-1 cell surface antigen)", "reagent": 2, "total luciferase, z-score": -0.436}
{"gene": "THY1 (Thy-1 cell surface antigen)", "reagent": 3, "total luciferase, z-score": 0.449}
{"gene": "PAGE2 (PAGE family member 2)", "reagent": 1, "total luciferase, z-score": -0.945}
{"gene": "PAGE2 (PAGE family member 2)", "reagent": 2, "total luciferase, z-score": 1.5}
{"gene": "PAGE2 (PAGE family member 2)", "reagent": 3, "total luciferase, z-score": 1.18}
{"gene": "TMPRSS3 (transmembrane serine protease 3)", "reagent": 1, "total luciferase, z-score": 1.12}
{"gene": "TMPRSS3 (transmembrane serine protease 3)", "reagent": 2, "total luciferase, z-score": 0.601}
{"gene": "TMPRSS3 (transmembrane serine protease 3)", "reagent": 3, "total luciferase, z-score": -0.909}
{"gene": "AMPD3 (adenosine monophosphate deaminase 3)", "reagent": 1, "total luciferase, z-score": -0.152}
{"gene": "AMPD3 (adenosine monophosphate deaminase 3)", "reagent": 2, "total luciferase, z-score": 0.027}
{"gene": "AMPD3 (adenosine monophosphate deaminase 3)", "reagent": 3, "total luciferase, z-score": -0.547}
{"gene": "GPR142 (G protein-coupled receptor 142)", "reagent": 1, "total luciferase, z-score": -0.995}
{"gene": "GPR142 (G protein-coupled receptor 142)", "reagent": 2, "total luciferase, z-score": 1.52}
{"gene": "GPR142 (G protein-coupled receptor 142)", "reagent": 3, "total luciferase, z-score": 0.574}
